The test system of this experiment is L1210 leukemia ip in BDF1 mice, survival T/C. The experiment is described as follows: NCI In Vivo Anticancer Drug Screen. Data for tumor model L1210 Leukemia (intraperitoneal) in B6D2F1 (BDF1) mice. The note with it: T/C endpoint: mean survival time, higher T/C = longer survival.
Setting [1] is: dose: 100.0 mg/kg/injection, schedule: Q01DX001 (ip), vehicle: saline.
Setting [2] is: dose: 400.0 mg/kg/injection, schedule: Q01DX001 (ip), vehicle: saline.
Where [3] appears, read: dose: 100.0 mg/kg/injection, schedule: Q01DX001 (ip), vehicle: carboxymethylcellulose (CMC).
The mark [4] stands for this setting: dose: 100.0 mg/kg/injection, schedule: Q04DX003 (ip), vehicle: Klucel (hydroxypropylcellulose) (HPC).
Setting [5] is: dose: 200.0 mg/kg/injection, schedule: Q04DX003 (ip), vehicle: Klucel (hydroxypropylcellulose) (HPC).
Setting [6] is: dose: 400.0 mg/kg/injection, schedule: Q04DX003 (ip), vehicle: Klucel (hydroxypropylcellulose) (HPC).

The list does not hold the whole screen: it gathers tests that were run many times, whatever their T/C, doses with no T/C, and many T/C values between a quarter and a half above the control. Further doses and runs are listed elsewhere. T/C is the treated group as % of the vehicle group. Some entries give survivors of the animals treated and no T/C: the source holds a T/C of zero for them, seemingly a mark for toxic or unscored doses. Some survivor counts are full or nearly so, which does not show that the dose was tolerated: the source hardly ever lists a survival T/C far under the control, and the zero likely stands for such cases as well. Survivors were counted at the toxicity check, usually on the fifth day, unless a day is given; later deaths do not show. Schedules are NCI's codes, taken here to give the interval after Q, in days (D) or hours (H), and the number of doses after X. Some schedule codes hold Z or #, which are not explained here. Some doses were run more than once; their values stand side by side, smallest first. Where survival is the endpoint, this PubChem deposit counts one and a half times the control or more as active, and values a quarter to a half above the control carry no call in these data; other NCI protocols may use other cut-offs. Some T/C values are followed by the survivors on the day toxicity was checked, most often the fifth; where none is given, no animal had died by that day.

As for `c1ccc(C2(c3ccccc3)CC([P+](c3ccccc3)(c3ccccc3)c3ccccc3)=NN2CC[P+](c2ccccc2)(c2ccccc2)c2ccccc2)cc1`, the survivor count was 1 of 6 (dose: 12.5 mg/kg/injection, schedule: Q01DX001 (ip), vehicle: saline); 0 of 6 (dose: 25.0 mg/kg/injection, schedule: Q01DX001 (ip), vehicle: saline); 0 of 6 (dose: 50.0 mg/kg/injection, schedule: Q01DX001 (ip), vehicle: saline); 0 of 6 under setting [1]; 0 of 6 (dose: 200.0 mg/kg/injection, schedule: Q01DX001 (ip), vehicle: saline); 0 of 6 under setting [2].

`O=C(C[n+]1ccccc1-c1ccccn1)c1ccccc1`: the survivor count (dose: 80.0 mg/kg/injection, schedule: Q01DX001 (ip), vehicle: saline) was 0 of 6.

In the case of `CCCCC(CCC)(CCN)CCCC`, the survivor count by setting is: (dose: 32.0 mg/kg/injection, schedule: Q04DX003 (ip), vehicle: Klucel (hydroxypropylcellulose) (HPC)) 6 of 6; (dose: 50.0 mg/kg/injection, schedule: Q01DX001 (ip), vehicle: carboxymethylcellulose (CMC)) 0 of 4 and 2 of 4; under setting [3], 0 of 4; (dose: 200.0 mg/kg/injection, schedule: Q01DX001 (ip), vehicle: carboxymethylcellulose (CMC)) 0 of 4; (dose: 400.0 mg/kg/injection, schedule: Q01DX001 (ip), vehicle: carboxymethylcellulose (CMC)) 0 of 4.

As for `O=C(CCl)c1ccc2c(c1)Nc1ccccc1S2`, the survivor count under setting [3] is given as 2 of 4.

For the molecule `O=c1c(CCO)c(C2CC2)n2n1CCCC2`, the survivor count (dose: 37.5 mg/kg/injection, schedule: Q01DX001 (ip), vehicle: other) is on record as 0 of 6; the survivor count (dose: 75.0 mg/kg/injection, schedule: Q01DX001 (ip), vehicle: other) was 0 of 6; the survivor count (dose: 150.0 mg/kg/injection, schedule: Q01DX001 (ip), vehicle: other) is on record as 0 of 6; the survivor count (dose: 300.0 mg/kg/injection, schedule: Q01DX001 (ip), vehicle: other) was 0 of 6.

For `CCCCNc1c(C(=O)OCC)cnc2c1cnn2CC`, the survivor count by setting is: (dose: 150.0 mg/kg/injection, schedule: Q01DX009 (ip), vehicle: Klucel (hydroxypropylcellulose) (HPC)) 3 of 6; (dose: 300.0 mg/kg/injection, schedule: Q01DX009 (ip), vehicle: Klucel (hydroxypropylcellulose) (HPC)) 0 of 6.

For the molecule `CCCCCCN1C(C)C1C(C)C` (stereo not drawn), the survivor count under setting [4] is on record as 3 of 6, the survivor count under setting [5] is reported as 0 of 6 and the survivor count under setting [6] was 1 of 6.

With `CC1(C)N=C(N)N=C(N)N1c1cc(Cl)c(Cl)cc1Cl`, the survivor count is 6 of 6 (dose: 25.0 mg/kg/injection, schedule: Q01DX009 (ip), vehicle: Klucel (hydroxypropylcellulose) (HPC)); 1 of 6 (dose: 50.0 mg/kg/injection, schedule: Q01DX009 (ip), vehicle: Klucel (hydroxypropylcellulose) (HPC)); 0 of 6 (dose: 100.0 mg/kg/injection, schedule: Q01DX009 (ip), vehicle: Klucel (hydroxypropylcellulose) (HPC)); 4 of 6 under setting [4]; 1 of 6 under setting [5]; 0 of 6 under setting [6].

For the molecule `O=C(CC(O)(C(F)(F)F)C(F)(F)F)C(Cl)C(O)(C(F)(F)F)C(F)(F)F` (stereo not drawn), the survivor count (dose: 100.0 mg/kg/injection, schedule: Q01DX001 (ip), vehicle: other) is 3 of 6.

Consider `CCSc1nc(Cl)cc(Sc2nc(N)nc3nc[nH]c23)n1`, for which the T/C by setting is: (dose: 29.0 mg/kg/injection, schedule: Q01DX001 (ip), vehicle: saline) 128 % of control; (dose: 40.0 mg/kg/injection, schedule: Q01DX009 (ip), vehicle: saline) 128 % of control; (dose: 60.0 mg/kg/injection, schedule: Q04DX003 (ip), vehicle: saline) 126 % of control; (dose: 66.0 mg/kg/injection, schedule: Q01DX001 (ip), vehicle: saline) 128 % of control; (dose: 75.0 mg/kg/injection, schedule: Q01DX009 (ip), vehicle: saline) 129 % of control; under setting [1], 117, 121, 127, 145 % of control. In addition, the T/C runs as follows: (dose: 100.0 mg/kg/injection, schedule: Q04DX003 (ip), vehicle: saline) 140 % of control; (dose: 132.0 mg/kg/injection, schedule: Q04DX003 (ip), vehicle: Klucel (hydroxypropylcellulose) (HPC)) 137 % of control; (dose: 150.0 mg/kg/injection, schedule: Q01DX001 (ip), vehicle: saline) 131 % of control; (dose: 200.0 mg/kg/injection, schedule: Q01DX009 (ip), vehicle: saline) 149 % of control; (dose: 200.0 mg/kg/injection, schedule: Q01DX Z (ip), vehicle: carboxymethylcellulose (CMC)) 147 % of control; (dose: 200.0 mg/kg/injection, schedule: Q04DX003 (ip), vehicle: saline) 147 % of control. The T/C reads like this: (dose: 400.0 mg/kg/injection, schedule: Q01DX Z (ip), vehicle: carboxymethylcellulose (CMC)) 140 % of control; (dose: 540.0 mg/kg/injection, schedule: Q01DX001 (ip), vehicle: saline) 145 % of control; (dose: 540.0 mg/kg/injection, schedule: Q04DX003 (ip), vehicle: saline) 134 % of control. Besides, the survivor count under setting [2] is listed as 6 of 6.

For the molecule `Cc1cc(NC(=O)c2ccc(C(=O)Nc3ccc(C4=NCCN4)c(C)c3)cc2)ccc1C1=NCCN1`, the T/C reads like this: (dose: 110.0 mg/kg/injection, schedule: Q01DX Z (ip), vehicle: carboxymethylcellulose (CMC)) 128 % of control; (dose: 166.0 mg/kg/injection, schedule: Q01DX Z (ip), vehicle: carboxymethylcellulose (CMC)) 132 % of control [5 of 6 alive]; (dose: 168.0 mg/kg/injection, schedule: Q01DX Z (ip), vehicle: carboxymethylcellulose (CMC)) 146 % of control. Under “dose: 375.0 mg/kg/injection, schedule: Q01DX Z (ip), vehicle: carboxymethylcellulose (CMC)”, the survivor count was 6 of 6.

For `Nc1cccc(CCC(=O)Nc2cccnc2)c1`, the survivor count was 3 of 6 (dose: 100.0 mg/kg/injection, schedule: Q01DX001 (ip), vehicle: Klucel (hydroxypropylcellulose) (HPC)); 1 of 6 (dose: 200.0 mg/kg/injection, schedule: Q01DX001 (ip), vehicle: Klucel (hydroxypropylcellulose) (HPC)); 0 of 6 (dose: 400.0 mg/kg/injection, schedule: Q01DX001 (ip), vehicle: Klucel (hydroxypropylcellulose) (HPC)).

As to `CS(=O)(=O)c1nc(Cl)c(Cl)c(C#N)c1Cl`, the survivor count (dose: 100.0 mg/kg/injection, schedule: Q01DX009 (ip), vehicle: saline with Tween-80) was 0 of 6; the survivor count (dose: 200.0 mg/kg/injection, schedule: Q01DX009 (ip), vehicle: saline with Tween-80) was 0 of 6; the survivor count (dose: 400.0 mg/kg/injection, schedule: Q01DX009 (ip), vehicle: saline with Tween-80) is listed as 0 of 6.

In the case of `C[N+](C)(C)Cc1ccccc1/C(=N\O)c1ccccc1`, the survivor count reads like this: (dose: 40.0 mg/kg/injection, schedule: Q01DX001 (ip), vehicle: carboxymethylcellulose (CMC)) 0 of 6; (dose: 80.0 mg/kg/injection, schedule: Q01DX001 (ip), vehicle: carboxymethylcellulose (CMC)) 1 of 6.

On to `O=C(O)c1ccc2c(c1Cl)C(=O)c1ccccc1C2=O`, for which, where the note is “dose: 400.0 mg/kg/injection, schedule: Q04DX003 (ip), vehicle: saline with Tween-80”, the survivor count is given as 2 of 6.
